According to patent publication US20100313296A1:
No constants are given. Whether binding was seen depends on the method and setting. Some entries that bind do so weakly or less than the wild type. Where a sequence is shown, tags or fusion partners need not be part of it.

Target: T1, DNA binding domain fused OsRHC1 (pGBKT7-OsRHC1) (rice)
T1 sequence: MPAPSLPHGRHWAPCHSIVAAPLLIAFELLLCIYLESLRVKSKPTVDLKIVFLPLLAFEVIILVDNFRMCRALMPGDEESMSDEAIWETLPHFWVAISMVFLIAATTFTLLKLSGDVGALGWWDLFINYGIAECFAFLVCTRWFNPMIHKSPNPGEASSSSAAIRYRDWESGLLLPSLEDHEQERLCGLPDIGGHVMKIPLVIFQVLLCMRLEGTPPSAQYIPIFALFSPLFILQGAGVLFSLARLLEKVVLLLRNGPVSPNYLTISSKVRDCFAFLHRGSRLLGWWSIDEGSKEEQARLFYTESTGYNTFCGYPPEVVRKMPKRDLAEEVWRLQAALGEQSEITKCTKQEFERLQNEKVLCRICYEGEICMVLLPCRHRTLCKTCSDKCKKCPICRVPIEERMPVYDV
Assay: yeast two hybrid: growth on SD/-3 and SD/-4 plates, lacZ colony-lift filter assay; confirmed by retransformation into AH109

binding: binds
B1: HML1797, partial clone of expressed protein ABA98865.1 fused to the AD domain (pGADT7-HML1797) (protein, not shown: small tags and cut ends)
chain: MAVGSERLGEEAARRQLGEARKARGGCSATRDGADDEGRRQINPPSPVWSSPPSLPLPLRSARRGTGGGRRPPFPLSSQIRPVGRGHRRQRHGPPLCSSRGRQGGGHRAVFFYLFLF
